From patent US20140356909A1
No constants are given. Whether binding was seen depends on the method and setting. Some entries that bind do so weakly or less than the wild type.

Biological target: cynomolgus monkey IL-17A (cynomolgous monkey (cyno))
Assay: ELISA of hybridoma supernatants

B1: ML109-10F7 (antibody, V domains shown)
VH: QVQLQQSGAELVRPGTSVTLSCKASGYIFTDYEIHWVKQTPVHGLEWIGVNDPESGGTFYNQKFDGKAELTADKSSSTAYMELRSLTSEDSGVYYCTRYYRYESFYGMDYWGQGTSITVSS
VL: QIVLTQSPAIMSASPGEKVTMTCSASSSISYIYWFQQKPGTSPKRWIYATFELASGVPARFSGSGSGTSYSLTISSMEAEDAATYYCHQRSSYPWTFGGGSKLEIKR
- binding: binds

B2: ML109-6C6 (antibody, V domains shown)
VH: QVQLQQSGAELVRPGASVKLSCKASGYTFSDYEIHWVKQTPVHGLAWIGVIHPGNGGTAYNQKFKDKATLTADKSSSTAYMELSSLTSEDSAVYYCERFLTYEGYFDYWGQGTTLTVSS
VL: SIVMTQTPKFLLVSAGDRVTITCKASQSVNNDVAWYQHKPGQSPKLLINYASNRYTGVPDRFTGSGYGTDFTFTISTVQAEDLAIYFCQQDYGSPYTFGGGTKLEIKR
- binding: binds
